Laboratory results reported in US9629918B2 (PURDUE RESEARCH FOUNDATION, priority 2012, dated 2017).

Test: general procedure: Fmoc solid-phase peptide synthesis; Wang resin loaded with Fmoc-L-Cys(Trt)-OH; HOBT/HBTU
Conditions: conjugation step

| Substance | conjugation yield [%] |
| --- | --- |
| DMTHF-EC-119-Desacetylvinblastine Hydrazide | 45 |
| DMTHF-EC-119-Tubulysin B Hydrazide | 55 |
